1 sequence from article PMC8384837 can be followed below.

What all share (settings): yeast three-hybrid, YBZ-1, SC-Leu-His + 0.5 mM 3-AT, 4 days
Test [1] has as its target T1, PUM1 PUF domain R2-VFQ R3-THE R4-TFR N899V + Y900F + C935T + R936H + Q939E + N971T + H972F + Q975R (UniProt Q14671).
T1 sequence: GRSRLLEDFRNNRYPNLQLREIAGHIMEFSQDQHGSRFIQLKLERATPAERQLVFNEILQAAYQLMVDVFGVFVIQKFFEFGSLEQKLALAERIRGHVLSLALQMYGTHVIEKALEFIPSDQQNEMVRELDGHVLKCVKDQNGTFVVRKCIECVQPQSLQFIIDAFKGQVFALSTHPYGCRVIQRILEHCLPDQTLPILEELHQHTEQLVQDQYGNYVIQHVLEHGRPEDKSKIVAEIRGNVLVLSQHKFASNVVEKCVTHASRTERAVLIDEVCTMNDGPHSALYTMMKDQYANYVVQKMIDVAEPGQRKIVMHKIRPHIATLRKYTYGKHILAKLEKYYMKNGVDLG

Test [2] deals with T2, PUM1 PUF domain R4-ACG N971A + H972C + Q975G (UniProt Q14671).
T2 sequence: T1 sequence with V72N, F73Y, T108C, H109R, E112Q, T144A, F145C, R148G

The target in test [3] is T3, PUM1 PUF domain R4-ACS N971A + H972C + Q975S (UniProt Q14671).
T3 sequence: T1 sequence with V72N, F73Y, T108C, H109R, E112Q, T144A, F145C, R148S

Test [4] concerns the target T4, PUM1 PUF domain R4-ALC N971A + H972L + Q975C (UniProt Q14671).
T4 sequence: T1 sequence with V72N, F73Y, T108C, H109R, E112Q, T144A, F145L, R148C

Test [5] has as its target T5, PUM1 PUF domain R4-ALG N971A + H972L + Q975G (UniProt Q14671).
T5 sequence: T1 sequence with V72N, F73Y, T108C, H109R, E112Q, T144A, F145L, R148G

Test [6] concerns the target T6, PUM1 PUF domain R4-ALS N971A + H972L + Q975S (UniProt Q14671).
T6 sequence: T1 sequence with V72N, F73Y, T108C, H109R, E112Q, T144A, F145L, R148S

In test [7] the target is T7, PUM1 PUF domain R4-ALY N971A + H972L + Q975Y (UniProt Q14671).
T7 sequence: T1 sequence with V72N, F73Y, T108C, H109R, E112Q, T144A, F145L, R148Y

Test [8] deals with T8, PUM1 PUF domain R4-AMA N971A + H972M + Q975A (UniProt Q14671).
T8 sequence: T1 sequence with V72N, F73Y, T108C, H109R, E112Q, T144A, F145M, R148A

Test [9] concerns the target T9, PUM1 PUF domain R4-AMC N971A + H972M + Q975C (UniProt Q14671).
T9 sequence: T1 sequence with V72N, F73Y, T108C, H109R, E112Q, T144A, F145M, R148C

In test [10] the target is T10, PUM1 PUF domain R4-AMV N971A + H972M + Q975V (UniProt Q14671).
T10 sequence: T1 sequence with V72N, F73Y, T108C, H109R, E112Q, T144A, F145M, R148V

Test [11] concerns the target T11, PUM1 PUF domain R4-ANC N971A + H972N + Q975C (UniProt Q14671).
T11 sequence: T1 sequence with V72N, F73Y, T108C, H109R, E112Q, T144A, F145N, R148C

In test [12] the target is T12, PUM1 PUF domain R4-ANL N971A + H972N + Q975L (UniProt Q14671).
T12 sequence: T1 sequence with V72N, F73Y, T108C, H109R, E112Q, T144A, F145N, R148L

Test [13] has as its target T13, PUM1 PUF domain R4-ANS N971A + H972N + Q975S (UniProt Q14671).
T13 sequence: T1 sequence with V72N, F73Y, T108C, H109R, E112Q, T144A, F145N, R148S

Test [14] deals with T14, PUM1 PUF domain R4-ANY N971A + H972N + Q975Y (UniProt Q14671).
T14 sequence: T1 sequence with V72N, F73Y, T108C, H109R, E112Q, T144A, F145N, R148Y

Test [15] has as its target T15, PUM1 PUF domain R4-APA N971A + H972P + Q975A (UniProt Q14671).
T15 sequence: T1 sequence with V72N, F73Y, T108C, H109R, E112Q, T144A, F145P, R148A

Test [16] concerns the target T16, PUM1 PUF domain R4-APC N971A + H972P + Q975C (UniProt Q14671).
T16 sequence: T1 sequence with V72N, F73Y, T108C, H109R, E112Q, T144A, F145P, R148C

Test [17] addresses T17, PUM1 PUF domain R4-APF N971A + H972P + Q975F (UniProt Q14671).
T17 sequence: T1 sequence with V72N, F73Y, T108C, H109R, E112Q, T144A, F145P, R148F

Test [18] concerns the target T18, PUM1 PUF domain R4-APG N971A + H972P + Q975G (UniProt Q14671).
T18 sequence: T1 sequence with V72N, F73Y, T108C, H109R, E112Q, T144A, F145P, R148G

Test [19] has as its target T19, PUM1 PUF domain R4-API N971A + H972P + Q975I (UniProt Q14671).
T19 sequence: T1 sequence with V72N, F73Y, T108C, H109R, E112Q, T144A, F145P, R148I

Test [20] concerns the target T20, PUM1 PUF domain R4-APR N971A + H972P + Q975R (Homo sapiens) (UniProt Q14671).
T20 sequence: T1 sequence with V72N, F73Y, T108C, H109R, E112Q, T144A, F145P

Where a chain is given by its changes, count along the chain named. Some of the results follow. For some assays here: At the low end of the ranking the order means little.

For the sequence “GGCUAGAACUAGUGGAUCCCCCGGCGCCCGGCGGCUCGAGCCCGGGUAAGUGUAGAUAGUCUGCAUGCCGCCGGGCGCCAUGCCUGCAGGUCGACUCUAGAAAACAUG”, the binding signal (log2 enrichment (interaction score)) in [1] is -5.6; in test [2], less than -7.81; in [3] it was less than -7.83; in test [4] it was less than -7.11; in test [5], less than -8.66; in test [6] it was less than -6.36. Further, the binding signal (log2 enrichment (interaction score)) in test [7] is less than -7.25; in [8], less than -5.04; in [9], less than -5.4; in [10], less than -5.65; in test [11], less than -5.41; in [12], less than -5.15. In addition, the binding signal (log2 enrichment (interaction score)) in [13] is less than -5.6; in test [14] it was less than -6.08; in test [15], less than -7.11; in test [16], less than -8.15; in test [17], less than -7.35; in test [18], less than -6.94. Further, the results for the binding signal (log2 enrichment (interaction score)) in test [19] and in [20] were less than -4.97 and 0.84, respectively.
